Among all 580,000 compounds or so, about 6,100 (1.1%) were called active. Inconclusive means that the source gave no clear call. Such entries were picked first, then a sample of the others. Calls come from the whole dose curve; as a rule, active = well fitted inhibition curve with a large enough effect; inconclusive = small, poorly fitted or top-dose-only effect, or another doubt; inactive = no such curve, though single readings can be large or run the other way. Potencies beside an inconclusive call are fits to weak or partial responses and may not hold up.
Each molecule was assayed against Polyunsaturated fatty acid lipoxygenase ALOX12 (Homo sapiens) (UniProt P18054) (assay: Primary qHTS assay for inhibitors of human arachidonate 12S-lipoxygenase (ALOX12): Round 2). Settings: purified 12hLO, xylenol orange hydroperoxide absorbance; activity change, negative = inhibition: at 108 µM (top of the series) unless noted.
Method in brief: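 Hydroperoxide product was detected by ferrous iron/xylenol orange as the 573 to 405 nm absorbance ratio. Arachidonic acid at 40 uM (final) was turned over for 30 min at room temperature by 150 nM human 12hLO, pH 7.0 Hepes buffer, after 15 min compound preincubation.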
% is set by controls: 0 for no effect and ±100 for the full control effect; potency is the fitted concentration of half-maximal effect.

The chains behind the UniProt entries cited, without tags or fusion partners. Where a name states a change or a piece, a line headed by the entry shows the natural chain unless it says otherwise.
UniProt P18054: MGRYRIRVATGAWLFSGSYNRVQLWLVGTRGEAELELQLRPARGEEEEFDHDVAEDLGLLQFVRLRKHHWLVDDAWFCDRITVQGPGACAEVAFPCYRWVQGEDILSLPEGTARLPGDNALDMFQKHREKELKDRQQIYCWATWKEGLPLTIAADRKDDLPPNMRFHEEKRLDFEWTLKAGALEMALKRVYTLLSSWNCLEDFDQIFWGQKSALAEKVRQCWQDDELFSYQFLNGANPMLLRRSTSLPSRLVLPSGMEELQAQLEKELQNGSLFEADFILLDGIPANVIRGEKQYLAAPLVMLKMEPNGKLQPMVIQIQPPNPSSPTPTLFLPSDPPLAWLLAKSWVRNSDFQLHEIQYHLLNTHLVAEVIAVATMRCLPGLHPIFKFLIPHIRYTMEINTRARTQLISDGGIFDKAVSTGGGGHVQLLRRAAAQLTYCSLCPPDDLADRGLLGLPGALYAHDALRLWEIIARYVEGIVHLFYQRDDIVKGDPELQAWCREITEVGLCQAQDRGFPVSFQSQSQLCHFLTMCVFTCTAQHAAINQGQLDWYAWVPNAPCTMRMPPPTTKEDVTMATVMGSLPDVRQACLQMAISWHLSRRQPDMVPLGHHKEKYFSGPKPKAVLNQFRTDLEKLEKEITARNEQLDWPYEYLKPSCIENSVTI

Row | Structure (SMILES) | Potency | activity change, negative = inhibition
1 | Cc1ccc(Cl)cc1NC(=S)N/N=C/c1cccc2ccccc12 | inconclusive: 50.1 µM [inhibitor, partial curve, poor fit] | –
2 | CC1=C(C(=O)N(C(C)C)C(C)C)CC(CC(=O)NC2CCCC2)C(=O)N1Cc1ccccc1 (stereo not given) | inconclusive: 31.6 µM [inhibitor, single point] | –
3 | Cc1ccc(OCCCCc2c(C)n[nH]c2C)c(C(C)(C)C)c1 | active: 35.5 µM | –
4 | CCc1ccc(N(CC(=O)NC)S(C)(=O)=O)cc1 | inactive | –
5 | Clc1cccc(-n2c(SCc3nnnn3-c3ccccc3)nnc2N2CCCC2)c1 | inconclusive: 70.8 µM [inhibitor, partial curve, poor fit] | –
6 | N#Cc1cccc(C(=O)N2CCCCCCNC(=O)[C@@H]3C[C@@H](c4nc(Cc5ccccc5)no4)C[C@@H]32)c1 | inconclusive: 56.2 µM [inhibitor, single point] | –
7 | NCC(c1ccc(Cl)cc1Cl)c1c[nH]c2ccccc12 (stereo not given) | inconclusive: 44.7 µM [inhibitor, partial curve, poor fit] | –
8 | CCN(C(=O)Cn1c(=O)oc2cc(S(=O)(=O)N3CCCC3)ccc21)c1ccc(OC)cc1 | inconclusive: 44.7 µM [inhibitor, partial curve, poor fit] | –
9 | CC[C@@H](CCC=C(C)C)C(=O)N(Cc1ccccc1)c1ccccc1 | inconclusive: 5.01 µM [inhibitor, full curve, poor fit] | –
10 | O=C1C2=C(Nc3ccccc3SC2c2ccco2)c2ccccc21 (stereo not given) | inconclusive: 56.2 µM [inhibitor, single point] | –
11 | CC(C)=CC(=O)N1CC[C@H](NC(=O)NC(C)C)[C@H]1C(=O)N[C@H](Cc1c[nH]c2ccccc12)C(N)=O | inconclusive: 100 µM [inhibitor, single point] | –
12 | Cc1noc(C)c1-c1cc2cc(C(C)C)oc2c(-c2ccc(CO)cc2)n1 | inconclusive: 17.8 µM [inhibitor, full curve, poor fit] | –
13 | CC(C)C[C@H]1COc2cccc(N3CCCC3)c2S(=O)(=O)N1 | inconclusive: 112 µM [inhibitor, single point] | –
14 | CCOC(=O)C1C(=O)NC(SCC(=O)OC)=C(C#N)C1c1ccccc1OCC (stereo not given) | inactive | –
15 | COc1cccc(OC)c1C(=O)Nc1c(C(=O)N2CCN(Cc3ccccc3)CC2)oc2ccccc12 | inactive | –
16 | COc1ccc(NC(=O)c2cnc(N3CCCCC3)c3ccccc23)cc1Cl | inconclusive: 70.8 µM [inhibitor, partial curve, poor fit] | –
17 | Cc1cccc(COc2ccccc2/C=N/Nc2ccc([N+](=O)[O-])cc2)c1 | inconclusive: 44.7 µM [inhibitor, partial curve, poor fit] | –
18 | CC12CCC(=O)N1C(C(=O)Nc1nc3c(F)cc(F)cc3s1)CS2 (stereo not given) | inconclusive: 25.1 µM [inhibitor, partial curve, poor fit] | –
19 | COc1cccc(NC(=O)CCc2ncc(-c3ccc(C)cc3)o2)c1 | inconclusive: 141 µM [inhibitor, single point] | –
20 | O=C(Nc1ccc(Br)cc1)c1cccnc1N1CCCCC1 | inconclusive: 31.6 µM [inhibitor, partial curve] | –

Row | Structure (SMILES) | Potency | activity change, negative = inhibition
21 | CCN1CCN(C(CC(C)C)c2nnnn2CS(=O)(=O)c2ccc(C)cc2)CC1 (stereo not given) | active: 7.08 µM | –
22 | CCOC(=O)C1=CN(CC(=O)Nc2cccc(Cl)c2C)S(=O)(=O)N=C1C | inactive | –
23 | Cc1ccc(S(=O)(=O)NCCc2csc(-c3cccc(F)c3)n2)cc1 | inconclusive: 50.1 µM [inhibitor, partial curve, poor fit] | –
24 | Nc1ncnc2sc3c(c12)CCN(C(=O)c1ccccc1)C3 | inconclusive: 35.5 µM [inhibitor, partial curve, poor fit] | –
25 | COc1cccc(CNC(=O)CCN2C(=S)NC(C)(C)CC2C)c1 (stereo not given) | inconclusive: 100 µM [inhibitor, partial curve, poor fit] | –
26 | O=C(Oc1ccccc1C(=O)Nc1ccccc1)c1ccc(Br)c([N+](=O)[O-])c1 | inactive | –
27 | Cc1cc(NC(=O)CSCC(=O)OCC(=O)Nc2cc(C)c(C)cc2[N+](=O)[O-])no1 | inconclusive: 79.4 µM [inhibitor, partial curve, poor fit] | –
28 | COCCCNc1nc2c([S+](=O)([O-])c3cc(OC)ccc3OC)nnn2c2ccccc12 | – | inactive: 6.48% [at 6.33 µM]
29 | Cc1ccc(C)c(NS(=O)(=O)c2cc3c4c(c2)C(C)C(=O)N4CCC3)c1 (stereo not given) | inconclusive: 50.1 µM [inhibitor, partial curve] | –
30 | N#Cc1ccccc1COC(=O)COc1ccc2c(c1)CCC2 | inconclusive: 56.2 µM [inhibitor, partial curve, poor fit] | –
31 | CCOC(=O)C1C(C(=O)OC)=C(C(=O)OC)c2ccccc2N1S(=O)(=O)C(F)(F)F (stereo not given) | inconclusive: 100 µM [inhibitor, single point] | –
32 | Cc1oc2ccc(O)c(CN3CCOCC3)c2c1C(=O)Nc1cccc(Cl)c1C | – | inconclusive: -45.2% [inhibitor]
33 | COc1ccc(C=C2C(=O)OC(C)(C)OC2=O)cc1OC | inactive | –
34 | NS(=O)(=O)C#Cc1ccccc1 | inactive | –
35 | c1ccc(C(CN2CCOCC2)c2ccccc2)cc1 | inconclusive: 0.199 µM [inhibitor, full curve, poor fit] | –
36 | COC(=O)c1cc(OC(=O)CCc2ccc(OC)c(Br)c2)cc(C(=O)OC)c1 | inconclusive: 50.1 µM [inhibitor, partial curve, poor fit] | –
37 | CSCCC(NC(=O)c1ccc(C(C)(C)C)cc1)C(=O)OCC(=O)N1CCCC1=O (stereo not given) | inconclusive: 112 µM [inhibitor, single point] | –
38 | O=C(CSc1cccc[n+]1[O-])Nc1cccc(S(=O)(=O)NC2=NCCCCC2)c1 | inconclusive: 25.1 µM [inhibitor, single point] | –
39 | COc1ccc(C(=O)NCCNC(=O)c2cnccn2)cc1 | inconclusive: 56.2 µM [inhibitor, single point] | –
40 | Cc1cc(F)ccc1S(=O)(=O)Nc1ccc(C(=O)N2CCCCCC2)cc1 | inactive | –

Gathered by group, those above with a tert-butyl group
Row | Structure (SMILES) | Potency | activity change, negative = inhibition
3 | Cc1ccc(OCCCCc2c(C)n[nH]c2C)c(C(C)(C)C)c1 | active: 35.5 µM | –
37 | CSCCC(NC(=O)c1ccc(C(C)(C)C)cc1)C(=O)OCC(=O)N1CCCC1=O (stereo not given) | inconclusive: 112 µM [inhibitor, single point] | –

From PubChem BioAssay AID1671190 (National Center for Advancing Translational Sciences (NCATS), 2021)
